{"source": "patent US12410113B2", "about": "“Sandalwood-type fragrance compounds” (SYMRISE AG, priority 2019, dated 2025)", "note": "“Also recorded” adds a separate entry of the source. Some compounds share one wording; it may come from a single statement."}
{"assay": "Odor evaluation (odor description, odor strength)", "conditions": "not given"}
{"compound": "C=C(CO)CCC1CC2CC2(C)C1(C)C", "note": "(stereo not drawn) [B, 2-methylene-4-(1,2,2-trimethyl-3-bicyclo[3.1.0]hexanyl)butan-1-ol]", "Odor (description)": "sandalwood, woody, creamy"}
{"compound": "CC1(C)C(CCC2(CO)CC2)CC2CC21C", "note": "(stereo not drawn) [C, [1-[2-(1,2,2-trimethyl-3-bicyclo[3.1.0]hexanyl)ethyl]cyclopropyl]methanol]", "Odor (description)": "sandalwood, woody, creamy"}
{"compound": "C=C(CO)CCC1CC=C(C)C1(C)C", "note": "(stereo not drawn) [Compound A, 2-methylene-4-(2,2,3-trimethylcyclopent-3-en-1-yl)butan-1-ol]", "Odor (description)": "sandalwood, woody"}
{"compound": "C=C(/C=C(\\C)CO)C1CC=C(C)C1(C)C", "note": "(stereo not drawn) [Compound J, (2E)-2-methyl-4-(2,2,3-trimethylcyclopent-3-en-1-yl)penta-2,4-dien-1-ol]", "Odor (description)": "sandalwood, creamy, woody"}
{"compound": "C=C(C=C(C)CO)C1CC2CC2(C)C1(C)C", "note": "(stereo not drawn) [Compound L, 2-methyl-4-(1,2,2-trimethyl-3-bicyclo[3.1.0]hexanyl)penta-2,4-dien-1-ol]", "Odor (description)": "sandalwood, woody, creamy"}
{"compound": "C=C(/C=C(\\CC)CO)C1CC=C(C)C1(C)C", "note": "(stereo not drawn) [Compound N, 2-ethyl-4-(2,2,3-trimethylcyclopent-3-en-1-yl)penta-2,4-dien-1-ol]", "Odor (description)": "woody, floral and sandalwood or a milky, floral, creamy and sandalwood note"}
{"compound": "CC1=CCC(C2(/C=C(\\C)CO)CC2)C1(C)C", "note": "(stereo not drawn) [D, 2-methyl-3-[1-(2,2,3-trimethylcyclopent-3-en-1-yl)cyclopropyl]prop-2-en-1-ol]", "Odor (description)": "sandalwood, woody, amber like"}
{"compound": "CC1=CCC(C2(CC(C)CO)CC2)C1(C)C", "note": "(stereo not drawn) [E, 2-methyl-3-[1-(2,2,3-trimethylcyclopent-3-en-1-yl)cyclopropyl]propan-1-ol]", "Odor (description)": "sandalwood, woody"}
{"compound": "CC1=CCC(C2(/C=C/C(C)O)CC2)C1(C)C", "note": "(stereo not drawn) [F]", "Odor (description)": "creamy, chocolate, natural character of patchouli"}
{"compound": "CC1=CCC(CCC2(CO)CC2)C1(C)C", "note": "(stereo not drawn) [G, [1-[2-(2,2,3-trimethylcyclopent-3-en-1-yl)ethyl]cyclopropyl]methanol]", "Odor (description)": "sandalwood, woody, creamy, sweet, soft"}
{"compound": "C=C(CO)CC(=C)C1CC=C(C)C1(C)C", "note": "(stereo not drawn) [I, 2-methylene-4-(2,2,3-trimethylcyclopent-3-en-1-yl)pent-4-en-1-ol]", "Odor (description)": "sandalwood, creamy, woody"}
{"compound": "C=C(/C=C(\\C)C1CC=C(C)C1(C)C)CO", "note": "(stereo not drawn) [K, (E)-2-methylene-4-(2,2,3-trimethylcyclopent-3-en-1-yl)pent-3-en-1-ol]", "Odor (description)": "sandalwood, creamy, woody"}
{"compound": "CC/C(=C\\C(C)C1CC=C(C)C1(C)C)CO", "note": "(stereo not drawn) [M, 2-ethyl-4-(2,2,3-trimethylcyclopent-3-en-1-yl)pent-2-en-1-ol]", "Odor (description)": "woody, floral, sandalwood; also recorded: woody, floral and sandalwood or a milky, floral, creamy and sandalwood note"}
{"compound": "C/C=C(/C=C(\\C)C1CC=C(C)C1(C)C)CO", "note": "(stereo not drawn) [O, 2-ethylidene-4-(2,2,3-trimethylcyclopent-3-en-1-yl)pent-3-en-1-ol]", "Odor (description)": "woody, floral and sandalwood or a milky, floral, creamy and sandalwood note"}
{"assay": "Odor evaluation (odor description, odor strength)", "conditions": "listed as 2-ethylidene-4-(2,2,3-trimethylcyclopent-3-en-1-yl)pent-3-en-1-ol"}
{"compound": "C/C=C(/C=C(\\C)C1CC=C(C)C1(C)C)CO", "note": "(stereo not drawn) [O, 2-ethylidene-4-(2,2,3-trimethylcyclopent-3-en-1-yl)pent-3-en-1-ol]", "Odor (description)": "milky, floral, creamy, sandalwood"}
